Assay results published in the supplement of paper PMC4371806.
Whole data set: some 2,300 compounds, median “plate-normalized OD600 growth (mean of duplicates)” near 0.29, cut for the lowest 2% near 0.22. The list shows a part of the results.

System: Escherichia coli BW25113
Experiment: plate-normalized OD600 growth (mean of duplicates) (OD600 (normalized)); higher = more growth (less inhibition)
Conditions: 10 µM
Procedure: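 E. coli BW25113 in LB (100 µl, 96-well, no shaking) was exposed to 10 µM of each compound from a ~30,000-member library and grown at 37°C for 24 h or 15°C for 48 h, in duplicate. Growth was read as OD600 and the duplicate ODs were normalized across screening plates to correct plate-to-plate variation. Hits were >3σ below the mean OD600 at 15°C and <2σ below the mean at 37°C.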

Compound | plate-normalized OD600 growth (temperature: 15°C, 48 h) | plate-normalized OD600 growth (temperature: 37°C, 24 h)
Cc1cc(C)n(-c2nc3ccccc3s2)n1 | 0.241 | 0.622
CC(=O)N1c2ccccc2C2=NNC(=S)NC21O (stereo unspecified) | 0.252 | 0.642
CC(C)(C)c1cc(CS)cc(C(C)(C)C)c1O | 0.243 | 0.625
Cc1cc(N2CCCC2)ccc1/C=N/n1cnnc1 | 0.259 | 0.687
N#CC1=C(O)OC2(C(=O)Nc3ccccc32)C2=C1CCC2 (stereo unspecified) | 0.249 | 0.614
CC(C)(C)c1ccc(-c2nnnn2-c2ccccc2)cc1 | 0.225 | 0.638
O=C(CNC(=O)C(c1ccccc1)c1ccccc1)N/N=C/c1cccc(OC(=O)c2ccccc2Br)c1 | 0.258 | 0.641
CCc1c2c(nn1-c1cc(Cl)ccc1OC)CC(c1ccccc1)CC2=O (stereo unspecified) | 0.25 | 0.63
N=c1sccn1CC(O)c1ccccc1 (stereo unspecified) | 0.236 | 0.625
CSC(=NCc1cccnc1)NC#N | 0.259 | 0.629
N#Cc1c(N)sc2c1CCCCC2 | 0.245 | 0.634
CCOc1ccc(CC(=Nc2ccccc2O)C2=C(O)CC(C)(C)CC2=O)cc1OCC | 0.262 | 0.631
Cc1ccc(NC(=O)C2C3C=CCCCCC32)cc1 (stereo unspecified) | 0.248 | 0.617
Oc1ccc(C2=CSC3=NCCN23)cc1O | 0.246 | 0.608
Cc1cc(=O)oc2n[nH]c(-c3ccccc3)c12 | 0.258 | 0.64
O=[N+]([O-])c1ccc(OCCCOc2ccc([N+](=O)[O-])cc2)cc1 | 0.238 | 0.596
CC1(C)C2CCC1(C)C(N/C(=C(/C(Cl)=C(Cl)Cl)[N+](=O)[O-])n1nnc3ccccc31)C2 (stereo unspecified) | 0.253 | 0.629
COc1cccc(NC(=O)CCCc2ccccc2)c1 | 0.249 | 0.634
O=C(O)c1sc2nc(-c3ccccc3)cc(-c3ccccc3)c2c1-n1cccc1 | 0.268 | 0.628
CC(C(=O)O)C(=O)c1cc(Cl)c(Cl)cc1Cl (stereo unspecified) | 0.215 | 0.63
ON=C(c1cccs1)c1cccs1 | 0.229 | 0.591
Cc1ccc(-n2nc3c([n+]2[O-])CCc2nonc2-3)cc1 | 0.243 | 0.608
O=C(Nc1ccccc1)C(O)C(O)C(=O)Nc1ccccc1 (stereo unspecified) | 0.239 | 0.609
OC1(c2ccc(F)cc2)Cc2ccccc2C2=NCCN21 (stereo unspecified) | 0.251 | 0.589
Nc1nnc(CCCCCc2nnc(N)s2)s1 | 0.248 | 0.621

Compound | plate-normalized OD600 growth (temperature: 15°C, 48 h) | plate-normalized OD600 growth (temperature: 37°C, 24 h)
OC1CCN(C(=S)Nc2ccccc2)CC1 | 0.246 | 0.61
O=C(Cc1c[nH]c2ccccc12)OCC(=O)c1ccc(F)cc1 | 0.257 | 0.613
O=C1CC(c2ccco2)c2ccc3ccccc3c2N1 (stereo unspecified) | 0.241 | 0.623
CC1(C)OC(=O)N(CCCCCCN2C(=O)OC(C)(C)C2(C)O)C1(C)O (stereo unspecified) | 0.197 | 0.652
COc1cc(/C=C2\NC(=O)NC2=O)ccc1O | 0.247 | 0.622
CCC(Sc1nc2ccccc2s1)C(=O)Nc1nnc(C)s1 (stereo unspecified) | 0.255 | 0.658
COC(=O)c1cccc([N+](=O)[O-])c1-c1c(C(=O)OC)cccc1[N+](=O)[O-] | 0.236 | 0.619
CCCCC#Cc1ccc(C(=O)NNC(=O)Nc2cc(Cl)cc(Cl)c2)o1 | 0.256 | 0.61
Cc1ccc(NC(=O)CCN2CCN(c3ccccc3)CC2)cc1 | 0.26 | 0.612
C/C(CC(=O)Nc1ccc(Nc2ccccc2)cc1)=N\NC(=O)Cc1ccccc1 | 0.242 | 0.651
N#CC(C(=O)c1ccc(Cl)cc1Cl)c1nc2ccccc2[nH]1 (stereo unspecified) | 0.246 | 0.601
Cc1cc(Cl)nc(NC(=O)NS(=O)(=O)c2ccccc2NC(=O)C(F)(F)F)n1 | 0.233 | 0.611
COc1ccc2[nH]c(C)c(CCNS(=O)(=O)c3cc(Cl)ccc3Cl)c2c1 | 0.249 | 0.606
Cc1nn2c(c1-c1ccccc1)NC(=O)CC2=O | 0.256 | 0.643
N#Cc1cc(I)c(C#N)c(I)c1 | 0.198 | 0.616
CCOC(=O)C1C(c2ccccc2)C(C(=O)OCC)C1c1ccccc1 (stereo unspecified) | 0.256 | 0.62
CCc1ccccc1NC(=O)CSc1nc2c(c(=O)n(C)c(=O)n2C)n1C | 0.248 | 0.609
O=C(O)CC(CC(=O)O)c1ccc(C(F)(F)F)cc1 | 0.246 | 0.599
Cc1[nH]c2ccc(Cl)cc2c(=O)c1CN1CCC(C)CC1 | 0.239 | 0.59
Cc1cc(=O)n2c(-c3ccc(Cl)cc3)csc2n1 | 0.239 | 0.607
Cc1ccc(S(=O)(=O)Nc2ccc(C)c(Cl)c2)cc1 | 0.235 | 0.626
c1ccc2c(c1)OCCCOc1ccccc1OCCCO2 | 0.251 | 0.607
COCc1cc(=O)[nH]c(Nc2nc3ccccc3s2)n1 | 0.243 | 0.605
CCOC(=O)c1cc(-c2ccc(/C=N/N3C(=O)C4C5C=CC(CC5)C4C3=O)o2)ccc1Cl (stereo unspecified) | 0.25 | 0.621
Cc1cccc(NC(=O)C(C)C(=O)c2ccccc2)c1 (stereo unspecified) | 0.256 | 0.608

Compound | plate-normalized OD600 growth (temperature: 15°C, 48 h) | plate-normalized OD600 growth (temperature: 37°C, 24 h)
N#CC(C#N)=CNc1cccc(N)n1 | 0.231 | 0.613
Cn1c(=O)c(-c2nc3ccc(N4CCOCC4)cc3[nH]2)c(O)c2cc(Cl)ccc21 | 0.251 | 0.624
O=c1[nH]cnc2ccc(NC(=S)NCc3ccc4c(c3)OCO4)cc12 | 0.255 | 0.613
COc1ccc(C(=O)NCC(=O)N/N=C(\C)c2cccc(N)c2)cc1OC | 0.249 | 0.633
N=c1c(S(=O)(=O)c2ccccc2)c(N)c(CO)c2sc3ccccc3n12 | 0.236 | 0.601
CCOC(=O)C1=C(c2ccccc2)N=c2s/c(=C/c3cc(OC)c(OC)cc3Br)c(=O)n2C1c1c(OC)ccc2ccccc12 (stereo unspecified) | 0.255 | 0.661
COc1ccc(-c2ccc(C=C(C#N)C#N)s2)cc1 | 0.249 | 0.65
COc1ccc(/C=C/c2nc3sc4c(c3c(=O)o2)CCCC4)cc1OC | 0.244 | 0.592
Cn1c2ccc(Br)cc2c2nnc(SCc3ccc4nonc4c3)nc21 | 0.25 | 0.62
COc1cc(C)nc(NC(=O)NS(=O)(=O)c2c(C)cc(Cl)nc2Cl)n1 | 0.243 | 0.649
COc1ccc(/C=N/NC(=O)c2ccc(C)o2)cc1Br | 0.251 | 0.59
CCOC(=O)C1=C(C)N=c2s/c(=C/c3cc(Br)ccc3OC)c(=O)n2C1c1ccccc1 (stereo unspecified) | 0.249 | 0.61
Cc1onc(-c2ccccc2Cl)c1C(=O)Nc1ccc(S(=O)(=O)Nc2nccs2)cc1 | 0.246 | 0.614
CCOC(=O)C1=C(C)NC(=O)C(C(N)=O)C12CCCCC2 (stereo unspecified) | 0.237 | 0.601
CCOc1ccc(-n2nc3ccc(NC(=O)COc4ccccc4C)cc3n2)cc1 | 0.235 | 0.616
O=C(Nc1ccc(C(F)(F)F)cc1)Nc1ccccc1C(=O)O | 0.277 | 0.634
CCOC(=O)C(=CNNS(=O)(=O)c1cc(C(F)(F)F)cc(C(F)(F)F)c1)C(=O)OCC | 0.246 | 0.602
COC(=O)Cn1sc2c3c(ccc2c1=O)C(=O)c1ccccc1C3=O | 0.247 | 0.652
CCOc1ccc(N2C(=O)/C(=C/c3ccc(Br)cc3)NC2=S)cc1 | 0.244 | 0.615
Cc1cc(C)c(C)c(C(=O)CCCC(=O)O)c1C | 0.245 | 0.624
CCCN1C(=O)C(O)(C/C(C)=N\O)c2ccccc21 (stereo unspecified) | 0.263 | 0.615
C=CCn1c(CSc2ccccc2[N+](=O)[O-])n[nH]c1=S | 0.26 | 0.606
COC(=O)C1CC(=O)N(c2ccc(Br)cc2)C1 (stereo unspecified) | 0.244 | 0.616
CC12CCC(C1)C(C)(C)C2NC(=O)c1cccs1 (stereo unspecified) | 0.26 | 0.639
C=CCn1c(C(O)c2ccccc2)n[nH]c1=S (stereo unspecified) | 0.247 | 0.613

Compound | plate-normalized OD600 growth (temperature: 15°C, 48 h) | plate-normalized OD600 growth (temperature: 37°C, 24 h)
CC(CCc1ccccc1)Nc1cc(N2CCN(S(C)(=O)=O)CC2)ccc1[N+](=O)[O-] (stereo unspecified) | 0.263 | 0.619
Nc1nonc1N=NN(Cc1ccc(Cl)cc1)c1nonc1N | 0.25 | 0.616
CCOc1ccc(N2C(=O)CC(N3CCN(C4CC(=O)N(c5ccc(OCC)cc5)C4=O)CC3)C2=O)cc1 (stereo unspecified) | 0.256 | 0.62
Cc1cc(NC(=O)c2cc3n(n2)C(C(F)(F)F)CC(c2ccc(Br)cc2)N3)no1 (stereo unspecified) | 0.247 | 0.618
CC(C)(C)N(NC(=O)OCc1ccccc1)C(=O)c1ccccc1 | 0.246 | 0.666
O=C(O)c1cccc(-c2ccc(/C=N/NC(=O)c3ccncc3)o2)c1 | 0.247 | 0.64
NC(=O)C1=C(O)C(=O)N(C2CCCCC2)C1 | 0.258 | 0.636
C=CCSC1=C(C#N)C(c2ccccc2)CC(=O)N1 (stereo unspecified) | 0.244 | 0.621
O=c1c2ccccc2nc(-c2ccccc2)n1Nc1cccc(Cl)c1 | 0.233 | 0.625
O=C(CC1(O)C(=O)Cc2ccc(Br)cc21)c1ccc(F)cc1 (stereo unspecified) | 0.247 | 0.617
Nc1sc(=S)n(-c2ccccc2)c1-c1nc2ccccc2s1 | 0.234 | 0.608
O=C(Nc1cccnc1)Nc1csc(-c2ccc(C(F)(F)F)cc2)n1 | 0.22 | 0.615
COc1ccc(C2C(C#N)=C(N)N(c3cccc(C)c3)C3=C2C(=O)CC(C)(C)C3)cc1OC (stereo unspecified) | 0.263 | 0.652
O=C1CC(c2cccc([N+](=O)[O-])c2)CC2=C1C(c1ccc(Cl)cc1)N(C(=O)C(F)(F)F)c1ccccc1N2 (stereo unspecified) | 0.262 | 0.595
Cc1ccc2[nH]c(=O)c(C=Nc3c(C)n(-c4ccccc4)n(-c4ccccc4)c3=O)c(O)c2c1 | 0.255 | 0.619
CC1(C)C(=O)C2(CCCCC2)C(=O)OC1c1ccc(F)cc1 (stereo unspecified) | 0.234 | 0.611
CCC(=O)OCCNc1ccc2noc3c2c1C(=O)c1ccccc1-3 | 0.232 | 0.633
O=C(Nc1ccc(Cl)cc1Cl)c1cnccn1 | 0.245 | 0.607
CCc1c(C)nc2[nH]nc(-c3ccccc3C)n2c1=O | 0.245 | 0.626
COc1ccc(N2C(=O)CC(SC(N)=Nc3ccccc3)C2=O)cc1 (stereo unspecified) | 0.253 | 0.626
CSCCC(NC(=O)c1ccccc1)C(=O)OCC(=O)Nc1ccccc1C#N (stereo unspecified) | 0.236 | 0.619
Cc1ccc(S(=O)(=O)NCC(=O)NCC(N)=O)cc1 | 0.244 | 0.614
CCCCCOc1ccc(NC(=O)c2cccnc2)cc1 | 0.251 | 0.615
